Laboratory results: PubChem BioAssay AID493246 (Drosophila RNAi Screening Center, 2011)
The deposit covers about 21,000 reagents; this is a random part of those that have a named target and a result. Over the whole deposit, 429 (2%) got an active call. 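Values are raw and not normalised between plates; calls rest on per-plate z-scores that were not deposited.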 The numbers tell different reagents against one gene apart. A plus sign joins genes that one reagent is predicted to hit. Reagent sequences are not shown. The record does not give: the amount of reagent, the time to read-out.

- Test: 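Genes fly cells need to grow and stay alive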 (primary screen)
- System: Drosophila Kc and S2R+ cells
- Reagent: long dsRNA against Drosophila genes
- Read-out: 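Raw, unnormalised count of remaining cells in each well; per-plate z-scores of cell number underlie the calls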
- Scale: Kc cell number and S2R+ cell number: higher = more cells remaining
- Call rule: 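Counted as a hit if cell number falls by a z-score of at least 3 within its plate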

target | reagent | Kc cell number, rep 1 | Kc cell number, rep 2 | S2R+ cell number, rep 1 | S2R+ cell number, rep 2 | Call
His2B:CG33870 + His2B:CG33868 + His2B:CG33882 + 21 more | 1 | 6.33e5 | 7.48e5 | 4.68e5 | 2.56e5 | active
Aladin (GeneID 31881) | 1 | 5.80e5 | – | 9.15e5 | – | inactive
CG5382 (GeneID 42618) | 1 | 1.51e6 | 1.64e6 | 1.11e6 | 1.20e6 | inactive
CG10621 (GeneID 35152) | 1 | 1.51e6 | 1.65e6 | 1.20e6 | 2.79e5 | inactive
CG2901 (GeneID 31338) | 1 | 1.61e6 | 1.71e6 | 1.04e6 | 1.20e6 | inactive
Lint-1 (GeneID 32055) | 1 | 5.49e5 | – | 6.94e5 | – | inactive
Mpc1 (GeneID 42268) | 1 | 1.73e6 | 1.70e6 | 1.31e6 | 1.32e6 | inactive
CG13082 (GeneID 35244) | 1 | 1.53e6 | 1.67e6 | 1.37e6 | 4.51e5 | inactive
Eip75B (GeneID 39999) | 1 | 1.50e6 | 1.63e6 | 7.32e5 | 8.15e5 | inactive
CG46441 (GeneID 42423) | 1 | 1.50e6 | 1.65e6 | 1.16e6 | 1.25e6 | inactive
Cmpk (GeneID 43165) | 1 | 5.04e5 | – | 7.73e5 | – | inactive
CG6028 (GeneID 42589) | 1 | 1.48e6 | 1.58e6 | 1.09e6 | 1.15e6 | inactive
CkIIalpha-i3 (GeneID 38088) | 1 | 1.12e6 | 1.44e6 | 9.36e5 | 9.92e5 | inactive
Nmt (GeneID 38909) | 1 | 1.60e6 | 1.59e6 | 1.09e6 | 1.11e6 | inactive
CG15615 (GeneID 36882) | 1 | 1.52e6 | 1.58e6 | 1.12e6 | 1.26e6 | inactive
Cyp305a1 (GeneID 40161) | 1 | 1.44e6 | 1.52e6 | 1.26e6 | 1.30e6 | inactive
Apc (GeneID 44642) | 1 | 1.62e6 | 1.75e6 | 1.09e6 | 1.21e6 | inactive
CG13995 (GeneID 33851) | 1 | 1.43e6 | 1.42e6 | 1.02e6 | 1.18e6 | inactive
CG13995 (GeneID 33851) | 2 | 1.65e6 | 1.32e6 | 1.14e6 | 1.30e6 | inactive
CG7798 (GeneID 36798) | 1 | 1.58e6 | 1.61e6 | 1.20e6 | 1.30e6 | inactive
barr (GeneID 35287) | 1 | 1.33e6 | 1.44e6 | 1.17e6 | 2.71e5 | inactive
ric8b + ric8a | 1 | 1.51e6 | 1.52e6 | 1.03e6 | 1.14e6 | inactive
ect (GeneID 44135) | 1 | 1.55e6 | 1.61e6 | 1.03e6 | 1.20e6 | inactive
ect (GeneID 44135) | 2 | 1.48e6 | 1.43e6 | 1.30e6 | 1.33e6 | inactive
CG42827 + CG42828 | 1 | 1.23e6 | 1.69e6 | 1.04e6 | 1.16e6 | inactive
CG12213 (GeneID 41447) | 1 | 1.31e6 | 1.38e6 | 1.08e6 | 1.20e6 | inactive
Ldsdh1 (GeneID 31726) | 1 | 1.61e6 | 1.67e6 | 1.02e6 | 1.15e6 | inactive
CG3032 (GeneID 31648) | 1 | 1.49e6 | 1.51e6 | 1.08e6 | 1.19e6 | inactive
Cpr57A + Obp57d | 1 | 1.33e6 | 1.35e6 | 1.20e6 | 1.23e6 | inactive
Lztr1 (GeneID 31037) | 1 | 1.46e6 | 1.42e6 | 1.02e6 | 1.05e6 | inactive
Lztr1 (GeneID 31037) | 2 | 1.45e6 | 1.45e6 | 9.75e5 | 1.09e6 | inactive
Acsx1L (GeneID 42351) | 1 | 1.19e6 | 1.29e6 | 1.13e6 | 1.21e6 | inactive
Cpr76Bb (GeneID 40121) | 1 | 1.44e6 | 1.44e6 | 1.37e6 | 1.47e6 | inactive
CG30183 (GeneID 37749) | 1 | 1.48e6 | 1.54e6 | 1.29e6 | 1.36e6 | inactive
CG30183 (GeneID 37749) | 2 | 1.48e6 | 1.49e6 | 1.28e6 | 1.37e6 | inactive
hkb (GeneID 40549) | 1 | 1.37e6 | 1.33e6 | 1.22e6 | 1.32e6 | inactive
CG34447 (GeneID 5740813) | 1 | 1.50e6 | 1.61e6 | 1.04e6 | 1.20e6 | inactive
Delta (GeneID 42313) | 1 | 1.39e6 | 1.43e6 | 1.00e6 | 1.09e6 | inactive
Jon66Cii (GeneID 38953) | 1 | 1.31e6 | 1.34e6 | 1.15e6 | 1.22e6 | inactive
CaBP1 (GeneID 34976) | 1 | 1.37e6 | 1.43e6 | 1.35e6 | 1.45e6 | inactive
CG17361 (GeneID 39548) | 1 | 1.66e6 | 1.56e6 | 1.18e6 | 1.31e6 | inactive
Cep164 (GeneID 32563) | 1 | 1.60e6 | 1.60e6 | 1.12e6 | 1.25e6 | inactive
Agps (GeneID 36669) | 1 | 1.48e6 | 1.50e6 | 1.18e6 | 1.33e6 | inactive
Prosalpha4T1 (GeneID 42457) | 1 | 1.24e6 | 1.33e6 | 9.48e5 | 1.04e6 | inactive
CG33181 (GeneID 318916) | 1 | 1.63e6 | 1.62e6 | 1.07e6 | 1.22e6 | inactive
alc (GeneID 35931) | 1 | 1.48e6 | 1.56e6 | 1.19e6 | 1.33e6 | inactive
Obp56i (GeneID 246667) | 1 | 6.26e5 | – | 7.46e5 | – | inactive
CG5084 (GeneID 37051) | 1 | 1.51e6 | 1.56e6 | 1.06e6 | 1.18e6 | inactive
Acf (GeneID 43751) | 1 | 5.10e5 | – | 6.97e5 | – | inactive
regucalcin (GeneID 32165) | 1 | 1.42e6 | 1.61e6 | 1.06e6 | 1.21e6 | inactive
regucalcin (GeneID 32165) | 2 | 1.69e6 | 1.57e6 | 1.10e6 | 1.19e6 | inactive
l(2)05714 (GeneID 46066) | 1 | 1.35e6 | 1.39e6 | 6.88e5 | 7.11e5 | inactive
Vps36 (GeneID 39523) | 1 | 1.29e6 | 1.35e6 | 1.30e6 | 1.40e6 | inactive
CG31473 (GeneID 318753) | 1 | 1.33e6 | 1.39e6 | 1.32e6 | 1.37e6 | inactive
CG14780 (GeneID 31102) | 1 | 1.53e6 | 1.45e6 | 9.59e5 | 1.07e6 | inactive
kel (GeneID 35084) | 1 | 1.70e6 | 1.66e6 | 1.35e6 | 1.52e6 | inactive
CR14117 (GeneID 39473) | 1 | 1.51e6 | 1.52e6 | 1.38e6 | 1.56e6 | inactive
CG14431 (GeneID 31639) | 1 | 1.48e6 | 1.47e6 | 9.94e5 | 1.08e6 | inactive
CG11211 (GeneID 35545) | 1 | 1.57e6 | 1.68e6 | 1.44e6 | 1.52e6 | inactive

A stretch taken from the entries so far, for reference:
target | reagent | Kc cell number, rep 1 | Kc cell number, rep 2 | S2R+ cell number, rep 1 | S2R+ cell number, rep 2 | Call
Apc (GeneID 44642) | 1 | 1.62e6 | 1.75e6 | 1.09e6 | 1.21e6 | inactive
CG13995 (GeneID 33851) | 1 | 1.43e6 | 1.42e6 | 1.02e6 | 1.18e6 | inactive
CG13995 (GeneID 33851) | 2 | 1.65e6 | 1.32e6 | 1.14e6 | 1.30e6 | inactive
CG7798 (GeneID 36798) | 1 | 1.58e6 | 1.61e6 | 1.20e6 | 1.30e6 | inactive
barr (GeneID 35287) | 1 | 1.33e6 | 1.44e6 | 1.17e6 | 2.71e5 | inactive
ric8b + ric8a | 1 | 1.51e6 | 1.52e6 | 1.03e6 | 1.14e6 | inactive
ect (GeneID 44135) | 1 | 1.55e6 | 1.61e6 | 1.03e6 | 1.20e6 | inactive
